Results from patent US20230190869A1, “PEPTIDE INHIBITORS OF GUANINE NUCLEOTIDE EXCHANGE FACTOR H-1” (UCL Business Ltd, priority 2020, published 2023).
At least one peptide structure holds a part that was inferred or is arguable (an end, a ring closure or a residue). Numbered stars: 1 amine (or outer) side, 2 acyl side, 3 side chain; on linkers, the order of the positions; unused ones are H or OH. Bridge positions count the residues as written; N and C are the ends. Square brackets hold non-standard residues; d marks the D form. Ends that are not written are not given here. Peptide text beside a SMILES is read from it. ξ: configuration not given here. ξαMeNle(6-ylidene) = CC(CCCC=[*:3])(N[*:1])C(=O)[*:2]

Key:
Type in all cases: cell-based
[1] = test system: active Dbl; test: αSMA / SRE reporter assays in cells overexpressing active Dbl (specificity)
[2] = test system: primary retinal pigment epithelial (RPE) cells; test: TGF-β stimulation of primary RPE cells (αSMA induction, junctional markers); details: for downregulation of junctional markers: primary RPE cells treated with TGF-β; for downregulation of junctional markers / TGF-β-induced induction of αSMA, a marker of epithelial fibrosis: FIG. 11
Protocol: Inhibition of TGF-β signaling in primary retinal pigment epithelial (RPE) cells. (A, B) Primary RPE cells were incubated with TAT-P5 or TAT-F1 and stimulated with TGF-β for five days. (A) αSMA and, as a loading control, tubulin expression were analysed by immunoblotting. […] (B) Expression of the junctional marker ZO-1 and tubulin were determined. (C) Primary RPE cells were incubated with TGF-β as in (A) but with stapled-P5, and expression of αSMA positive cells was analysed by immunofluorescence.
7) The inventors next tested the inhibitors in cell-based disease models. GEF-H1 drives fibrotic and degenrative responses in the RPE, which can be modelled by treating primary RPE cells with TGF-β.

[3] = test system: GEF-H1; test: SRE / αSMA promoter luciferase reporter gene assays of GEF-H1 signalling
[4] = test system: NF-κB activity; test: NF-κB luciferase reporter assay in human corneal epithelial cells; details: FIG. 14
[5] = target: T1, GEF-H1 (Canis lupus familiaris, UniProt Q865S3); test: GEF-H1 overexpression-induced cell spreading / cell shape morphological assay; details: transfected peptide, MDCK cells
T1 sequence (Q865S3 1-986): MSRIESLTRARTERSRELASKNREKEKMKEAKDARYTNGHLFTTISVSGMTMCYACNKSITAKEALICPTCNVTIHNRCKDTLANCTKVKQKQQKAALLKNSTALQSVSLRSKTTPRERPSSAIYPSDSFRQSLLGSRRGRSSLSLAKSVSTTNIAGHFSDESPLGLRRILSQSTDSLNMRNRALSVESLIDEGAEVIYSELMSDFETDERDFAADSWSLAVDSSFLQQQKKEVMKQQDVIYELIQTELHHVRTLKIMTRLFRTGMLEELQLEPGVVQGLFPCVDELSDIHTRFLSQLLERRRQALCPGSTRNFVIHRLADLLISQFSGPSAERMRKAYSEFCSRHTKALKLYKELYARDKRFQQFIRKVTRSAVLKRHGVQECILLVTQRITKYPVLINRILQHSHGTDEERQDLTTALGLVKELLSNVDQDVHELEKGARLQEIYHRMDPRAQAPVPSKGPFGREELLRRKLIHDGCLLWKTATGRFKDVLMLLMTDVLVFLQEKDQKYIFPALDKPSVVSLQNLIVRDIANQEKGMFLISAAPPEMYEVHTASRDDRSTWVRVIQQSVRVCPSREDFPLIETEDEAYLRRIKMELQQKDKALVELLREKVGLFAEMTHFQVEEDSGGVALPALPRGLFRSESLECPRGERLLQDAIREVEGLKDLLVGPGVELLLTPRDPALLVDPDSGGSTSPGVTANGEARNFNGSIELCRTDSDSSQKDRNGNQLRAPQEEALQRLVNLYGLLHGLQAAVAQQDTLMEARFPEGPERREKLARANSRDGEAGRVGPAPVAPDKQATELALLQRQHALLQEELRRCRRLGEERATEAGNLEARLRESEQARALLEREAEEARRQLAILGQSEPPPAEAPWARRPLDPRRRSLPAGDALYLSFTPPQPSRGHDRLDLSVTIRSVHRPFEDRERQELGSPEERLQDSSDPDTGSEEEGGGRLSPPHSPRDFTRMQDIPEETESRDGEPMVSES

[6] = test system: MDA-MB-231; test: Tumour cell migration by live cell microscopy; details: for migration of invasive cancer cells: MDA-MB-231, FIG. 15; for distance of migration / velocity of migration: live cell microscopy during 4 hours

| Molecule | transcription in the αSMA and SRE-reporter assays in cells overexpressing active Dbl ([1]; stapled-P5) | downregulation of junctional markers [2] | TGF-β-induced induction of αSMA, a marker of epithelial fibrosis ([2]; primary RPE cells) | constitutively active GEF-H1-induced signalling, αSMA and SRE-reporter assays ([3]; added to the medium, transfected 293T cells) | NF-κB-mediated transcription stimulated by constitutively active GEF-H1 [4] | inhibition of GEF-H1-induced cell shape changes [5] | migration of invasive cancer cells [6] | distance of migration [6] | velocity of migration [6] | transcription from the αSMA promoter in cells overexpressing active Dbl ([1]; TAT-P5 20 μM) | TGF-β induced αSMA expression normalised by tubulin (immunoblot) ([2]; primary RPE cells, TGF-β for five days) | transcription of the SRE-containing alpha-smooth muscle actin (αSMA) promoter ([3]; GEF-H1 overexpression) |
| --- | --- | --- | --- | --- | --- | --- | --- | --- | --- | --- | --- | --- |
| CC(C)C[C@H](NC(=O)[C@@H](N)CCCNC(=N)N)C(=O)NC1(C)CCCC=CCCCC(C)(C(=O)N2CCC[C@H]2C(=O)N[C@@H](CC(=O)O)C(=O)N[C@H](C(=O)O)[C@@H](C)O)NC(=O)[C@H](CO)NC(=O)[C@H](C)NC(=O)[C@@H]2CCCN2C1=O (some centres unmarked) [stapled-P5, RL(X)PAS(X)PDT; X = 2,(4, pentenyl)alanine] (H-RL[ξαMeNle(6-ylidene)]PAS[ξαMeNle(6-ylidene)]PDT-OH; staple 3-7) | did not inhibit | inhibit downregulation | effectively suppress | inhibited | inhibited | inhibits | strongly attenuated | reduced | reduced | – | – | – |
| GRKKRRQRRRPWQGQEDYDRLRPASYPDTDVI [TAT-P5] | – | inhibit downregulation | effectively suppress | – | – | – | strongly attenuated | reduced | reduced | do not inhibit transcription | concentration-dependent repression | inhibit transcription |
